Values from PubChem BioAssay AID743121 (NCATS, 2013).
Test: 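Knock-downs that sensitise breast cancer cells to camptothecin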 (primary screen). System: MDA-MB-231 cells, a human breast cancer line. Reagent: single siRNA against human genes, 20 nM siRNA (0.8 pmol per well). Duration: 120 h (drug added 48 h after transfection, read 72 h later). Conditions: camptothecin 20 nM (about EC30) for 72 h; vehicle 0.1% DMSO in parallel plates. Measurement: 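Cell viability by ATP luminescence (CellTiter-Glo) as % of non-targeting siRNA wells, and the log2 ratio of viability without drug over viability with camptothecin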. Scale: log2 vehicle/camptothecin viability: higher = stronger sensitisation to camptothecin. Call rule: 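Each gene scored by redundant siRNA activity (RSA) over its individual siRNA ratios; a gene is called active at p < 0.001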.
In all, the deposit lists about 26,000 reagents; this is an unselected part. 167 of all reagents (0.63%) count as active. 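Calls are per gene from RSA p-values that are not deposited; an individual active-marked siRNA can sensitise only weakly.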 The numbers tell different reagents against one gene apart. Not all columns of the deposit are shown.

For CFI (GeneID 3426) #1, what does the deposit list?
log2 vehicle/camptothecin viability: -0.248; outcome: inactive

How did the screen score CFI (GeneID 3426) #2?
log2 vehicle/camptothecin viability: 0.23; outcome: inactive

What is on record for CFI (GeneID 3426) #3?
log2 vehicle/camptothecin viability: -0.00409; outcome: inactive

What did the screen give for CFI (GeneID 3426) #4?
log2 vehicle/camptothecin viability: -0.135; outcome: inactive

How did the screen score HOXA1 (GeneID 3198) #1?
log2 vehicle/camptothecin viability: 3.4; outcome: active

What is on record for HOXA1 (GeneID 3198) #2?
log2 vehicle/camptothecin viability: 0.092; outcome: active

What is on record for HOXA1 (GeneID 3198) #3?
log2 vehicle/camptothecin viability: 0.218; outcome: active

For HOXA1 (GeneID 3198) #4, what does the deposit list?
log2 vehicle/camptothecin viability: -0.101; outcome: active
